We go through 1 molecule from PMC8096244.

These are yes or no findings as the source states them, for the method shown. In cells and extracts the contact can be indirect. Some entries that bind do so weakly or less than the wild type. Tags and fused reporters may be left off the sequences shown.

This assay has as its target T1, Rfc1-TAP (S. cerevisiae) (UniProt P38630).
T1 sequence: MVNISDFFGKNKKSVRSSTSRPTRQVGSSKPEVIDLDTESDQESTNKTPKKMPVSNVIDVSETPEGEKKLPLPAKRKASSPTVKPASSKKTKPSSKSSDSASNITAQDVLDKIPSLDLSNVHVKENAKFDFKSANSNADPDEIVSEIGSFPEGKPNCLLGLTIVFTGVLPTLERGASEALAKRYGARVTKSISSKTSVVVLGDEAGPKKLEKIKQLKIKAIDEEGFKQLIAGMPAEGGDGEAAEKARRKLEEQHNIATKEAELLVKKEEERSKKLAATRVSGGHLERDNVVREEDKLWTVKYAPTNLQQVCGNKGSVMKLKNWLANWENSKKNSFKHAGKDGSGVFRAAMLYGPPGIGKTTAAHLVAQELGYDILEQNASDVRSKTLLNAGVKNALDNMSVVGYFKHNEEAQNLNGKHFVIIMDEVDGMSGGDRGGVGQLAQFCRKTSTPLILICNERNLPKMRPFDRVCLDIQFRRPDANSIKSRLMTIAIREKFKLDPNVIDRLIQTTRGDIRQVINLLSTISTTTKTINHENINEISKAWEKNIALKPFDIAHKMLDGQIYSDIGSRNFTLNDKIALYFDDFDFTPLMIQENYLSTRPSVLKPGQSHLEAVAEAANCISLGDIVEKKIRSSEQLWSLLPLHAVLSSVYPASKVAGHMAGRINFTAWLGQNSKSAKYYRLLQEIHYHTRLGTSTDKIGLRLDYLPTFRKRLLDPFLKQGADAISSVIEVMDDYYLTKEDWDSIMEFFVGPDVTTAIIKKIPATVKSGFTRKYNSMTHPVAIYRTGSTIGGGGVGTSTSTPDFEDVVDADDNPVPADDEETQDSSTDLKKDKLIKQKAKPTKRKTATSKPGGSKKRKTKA
The assay is described as follows: co-IP; TAP-tagged bait captured on PanMouse IgG magnetic beads from lysate of cells at 5 h in meiosis (150 mM NaCl, 0.5% Triton X-100, benzonase, overnight at 4°C), TEV elution, western blot. A general note: A western blot detects proteins with antibodies after separation by electrophoresis.

B1: Mer3-Flag (protein, UniProt P51979 1-1187)
chain: MKTKFDRLGTGKRSRPSPNNIDFNDQSATFKRNKKNSRQPSFKVGLSYNSLLDDCDDENETEEIFEGRGLQFFDKDDNFSITADDTQVTSKLFDHDLEQTPDEEAKKPKKVTIRKSAKKCLSTTILPDSFRGVFKFTEFNKMQSEAFPSIYESNENCIISSPTGSGKTVLFELAILRLIKETNSDTNNTKIIYIAPTKSLCYEMYKNWFPSFVNLSVGMLTSDTSFLETEKAKKCNIIITTPEKWDLLTRRWSDYSRLFELVKLVLVDEIHTIKEKRGASLEVILTRMNTMCQNIRFVALSATVPNIEDLALWLKTNNELPANILSFDESYRQVQLTKFVYGYSFNCKNDFQKDAIYNSKLIEIIEKHADNRPVLIFCPTRASTISTAKFLLNNHIFSKSKKRCNHNPSDKILNECMQQGIAFHHAGISLEDRTAVEKEFLAGSINILCSTSTLAVGVNLPAYLVIIKGTKSWNSSEIQEYSDLDVLQMIGRAGRPQFETHGCAVIMTDSKMKQTYENLIHGTDVLESSLHLNLIEHLAAETSLETVYSIETAVNWLRNTFFYVRFGKNPAAYQEVNRYVSFHSVEDSQINQFCQYLLDTLVKVKIIDISNGEYKSTAYGNAMTRHYISFESMKQFINAKKFLSLQGILNLLATSEEFSVMRVRHNEKKLFKEINLSPLLKYPFLTEKKQSQIIDRVSQKVSLLIQYELGGLEFPSYEGASKLHQTLVQDKFLVFRHCFRLLKCMVDTFIEKSDGTSLKNTLFLLRSLNGHCWENTPMVLRQLKTIGLVSVRRLIRHGITNLEEMGHLSDTQIEYYLNLKIGNGIKIKNDISLLPCLNIRTKLENCKIENEELWLTFKVEISATFKSSIWHGQHLSLDIETEKSSGELIDFRRLQVNKLQSPRGFRISAKISPKLEKIEFSIHCQEIAGLGKTIVYSTDHLASQFSAKTPNIRKDLNSLEKCLFYESSSDGEVGKTSRVSHKDGLEESLSSDDSILDYLNERKKSSKAVESAAVIHPEAHSSSHFSNGRQVRSNGNYECFHSCKDKTQCRHLCCKEGIPVKYIKEKGPSSIKPVSKPDQIRQPLLAKNINTTPHLEKRLNSKPKQWQEENTDIATVHTLPSKIYNLSQQMSSMEAGEQVLKSGPENCPEIIPIDLESSDSYSSNTAASSISDPNGDLDFLGSDIEFE
For B1, the binding result is reported as “binds”.
